# Source: the supplement of paper PMC10849652
# The chains behind the UniProt entries cited, without tags or fusion partners. Where a name states a change or a piece, a line headed by the entry shows the natural chain unless it says otherwise.
# UniProt Q96QG7: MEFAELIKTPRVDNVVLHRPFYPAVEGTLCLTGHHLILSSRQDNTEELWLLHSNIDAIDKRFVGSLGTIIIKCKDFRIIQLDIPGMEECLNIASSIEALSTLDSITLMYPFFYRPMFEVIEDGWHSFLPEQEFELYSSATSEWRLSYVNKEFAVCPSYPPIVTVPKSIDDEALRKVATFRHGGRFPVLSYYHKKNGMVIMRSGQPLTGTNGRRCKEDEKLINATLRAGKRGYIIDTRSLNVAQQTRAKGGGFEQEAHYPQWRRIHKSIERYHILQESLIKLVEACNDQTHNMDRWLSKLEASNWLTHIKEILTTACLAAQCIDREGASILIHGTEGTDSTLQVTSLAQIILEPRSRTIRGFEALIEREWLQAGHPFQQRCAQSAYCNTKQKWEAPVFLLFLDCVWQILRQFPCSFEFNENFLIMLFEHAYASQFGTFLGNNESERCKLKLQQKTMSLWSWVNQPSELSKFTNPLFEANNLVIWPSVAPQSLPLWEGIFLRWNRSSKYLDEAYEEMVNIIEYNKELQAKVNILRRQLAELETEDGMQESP
# UniProt P11055, whole entry, looked up: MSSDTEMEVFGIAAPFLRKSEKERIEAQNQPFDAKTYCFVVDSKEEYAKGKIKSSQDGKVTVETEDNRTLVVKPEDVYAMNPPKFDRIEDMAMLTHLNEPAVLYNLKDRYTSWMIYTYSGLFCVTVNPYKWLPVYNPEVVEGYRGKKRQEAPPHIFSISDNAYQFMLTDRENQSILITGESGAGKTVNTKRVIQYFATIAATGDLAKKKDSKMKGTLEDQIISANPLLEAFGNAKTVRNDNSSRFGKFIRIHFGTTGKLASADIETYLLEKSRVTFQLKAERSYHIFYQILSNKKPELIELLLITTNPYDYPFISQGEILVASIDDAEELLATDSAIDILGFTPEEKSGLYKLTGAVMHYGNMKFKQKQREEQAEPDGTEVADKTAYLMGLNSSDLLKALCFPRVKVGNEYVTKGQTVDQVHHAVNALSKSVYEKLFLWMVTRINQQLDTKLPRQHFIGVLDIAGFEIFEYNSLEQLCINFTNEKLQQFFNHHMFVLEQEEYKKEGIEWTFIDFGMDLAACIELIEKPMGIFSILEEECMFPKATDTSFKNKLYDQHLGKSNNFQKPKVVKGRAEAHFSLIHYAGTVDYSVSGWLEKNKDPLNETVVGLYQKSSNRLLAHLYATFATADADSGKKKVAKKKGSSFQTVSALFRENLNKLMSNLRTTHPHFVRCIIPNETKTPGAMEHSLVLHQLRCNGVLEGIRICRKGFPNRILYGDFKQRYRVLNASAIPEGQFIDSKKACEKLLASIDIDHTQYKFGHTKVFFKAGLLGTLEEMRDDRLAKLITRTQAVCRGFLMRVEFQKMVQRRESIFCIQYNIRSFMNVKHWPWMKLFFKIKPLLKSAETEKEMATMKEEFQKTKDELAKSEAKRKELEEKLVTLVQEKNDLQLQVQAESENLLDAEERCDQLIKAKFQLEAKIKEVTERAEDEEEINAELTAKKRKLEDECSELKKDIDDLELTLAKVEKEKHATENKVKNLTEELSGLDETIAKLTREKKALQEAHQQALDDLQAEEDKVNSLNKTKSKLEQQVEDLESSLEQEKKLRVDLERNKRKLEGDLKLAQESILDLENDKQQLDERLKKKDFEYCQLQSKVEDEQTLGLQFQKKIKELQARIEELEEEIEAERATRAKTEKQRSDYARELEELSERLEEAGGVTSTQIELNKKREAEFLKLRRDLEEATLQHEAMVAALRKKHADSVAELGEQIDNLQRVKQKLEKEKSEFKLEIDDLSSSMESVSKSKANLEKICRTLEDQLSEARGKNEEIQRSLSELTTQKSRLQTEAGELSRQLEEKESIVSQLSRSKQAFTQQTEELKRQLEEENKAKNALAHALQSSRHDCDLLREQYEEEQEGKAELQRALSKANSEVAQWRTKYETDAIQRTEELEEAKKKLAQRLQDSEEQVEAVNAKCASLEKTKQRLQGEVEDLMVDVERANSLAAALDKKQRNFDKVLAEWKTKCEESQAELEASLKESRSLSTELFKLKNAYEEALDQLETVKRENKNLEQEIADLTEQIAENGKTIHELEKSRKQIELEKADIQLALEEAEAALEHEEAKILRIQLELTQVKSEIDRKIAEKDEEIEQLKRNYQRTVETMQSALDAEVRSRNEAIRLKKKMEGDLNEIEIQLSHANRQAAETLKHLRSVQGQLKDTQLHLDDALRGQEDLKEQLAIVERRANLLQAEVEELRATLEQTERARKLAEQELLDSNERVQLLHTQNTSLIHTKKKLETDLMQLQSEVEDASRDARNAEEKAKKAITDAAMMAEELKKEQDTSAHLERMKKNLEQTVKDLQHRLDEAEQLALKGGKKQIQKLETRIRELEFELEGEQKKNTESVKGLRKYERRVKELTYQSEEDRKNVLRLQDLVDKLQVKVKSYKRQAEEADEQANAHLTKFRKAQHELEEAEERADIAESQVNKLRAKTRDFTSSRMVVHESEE
# UniProt P03897, whole entry, looked up: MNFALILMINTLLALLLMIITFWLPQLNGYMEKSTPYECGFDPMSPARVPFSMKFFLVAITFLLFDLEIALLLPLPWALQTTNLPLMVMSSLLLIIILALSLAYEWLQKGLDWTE
# UniProt Q2M296: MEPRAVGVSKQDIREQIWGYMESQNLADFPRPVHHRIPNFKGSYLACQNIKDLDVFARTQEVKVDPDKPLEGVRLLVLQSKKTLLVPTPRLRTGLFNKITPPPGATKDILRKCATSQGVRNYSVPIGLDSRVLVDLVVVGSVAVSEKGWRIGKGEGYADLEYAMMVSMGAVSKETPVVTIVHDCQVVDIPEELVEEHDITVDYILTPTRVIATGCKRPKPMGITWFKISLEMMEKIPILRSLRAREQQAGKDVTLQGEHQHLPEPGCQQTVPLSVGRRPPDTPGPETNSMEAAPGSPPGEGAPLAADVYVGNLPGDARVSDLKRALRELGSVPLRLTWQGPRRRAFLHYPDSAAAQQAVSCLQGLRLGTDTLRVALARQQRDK
# UniProt Q96H55, whole entry, looked up: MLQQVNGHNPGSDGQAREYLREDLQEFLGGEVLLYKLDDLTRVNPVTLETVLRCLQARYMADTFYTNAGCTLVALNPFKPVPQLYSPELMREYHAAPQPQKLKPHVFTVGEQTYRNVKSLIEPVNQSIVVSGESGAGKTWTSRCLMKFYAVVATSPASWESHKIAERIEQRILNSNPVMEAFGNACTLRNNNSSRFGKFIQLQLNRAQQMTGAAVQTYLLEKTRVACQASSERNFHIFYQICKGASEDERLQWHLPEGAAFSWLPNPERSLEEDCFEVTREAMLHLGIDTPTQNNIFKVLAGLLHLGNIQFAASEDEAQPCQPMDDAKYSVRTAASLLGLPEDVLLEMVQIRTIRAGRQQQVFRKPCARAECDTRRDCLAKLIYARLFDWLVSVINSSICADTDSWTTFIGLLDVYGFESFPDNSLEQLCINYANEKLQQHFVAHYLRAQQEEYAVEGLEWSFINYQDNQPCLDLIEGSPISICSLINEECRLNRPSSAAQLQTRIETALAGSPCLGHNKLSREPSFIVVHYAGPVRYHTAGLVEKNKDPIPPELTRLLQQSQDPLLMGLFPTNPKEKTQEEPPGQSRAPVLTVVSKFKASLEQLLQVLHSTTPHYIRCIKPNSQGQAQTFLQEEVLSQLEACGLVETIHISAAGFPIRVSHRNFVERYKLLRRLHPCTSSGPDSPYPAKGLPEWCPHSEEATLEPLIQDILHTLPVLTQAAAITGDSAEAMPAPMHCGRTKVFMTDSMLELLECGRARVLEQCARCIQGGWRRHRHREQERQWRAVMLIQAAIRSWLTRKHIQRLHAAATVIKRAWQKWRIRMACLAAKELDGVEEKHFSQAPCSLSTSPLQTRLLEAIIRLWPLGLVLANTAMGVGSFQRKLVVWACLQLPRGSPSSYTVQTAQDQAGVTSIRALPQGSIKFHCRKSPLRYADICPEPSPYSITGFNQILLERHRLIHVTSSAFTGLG
# UniProt Q9NPC7: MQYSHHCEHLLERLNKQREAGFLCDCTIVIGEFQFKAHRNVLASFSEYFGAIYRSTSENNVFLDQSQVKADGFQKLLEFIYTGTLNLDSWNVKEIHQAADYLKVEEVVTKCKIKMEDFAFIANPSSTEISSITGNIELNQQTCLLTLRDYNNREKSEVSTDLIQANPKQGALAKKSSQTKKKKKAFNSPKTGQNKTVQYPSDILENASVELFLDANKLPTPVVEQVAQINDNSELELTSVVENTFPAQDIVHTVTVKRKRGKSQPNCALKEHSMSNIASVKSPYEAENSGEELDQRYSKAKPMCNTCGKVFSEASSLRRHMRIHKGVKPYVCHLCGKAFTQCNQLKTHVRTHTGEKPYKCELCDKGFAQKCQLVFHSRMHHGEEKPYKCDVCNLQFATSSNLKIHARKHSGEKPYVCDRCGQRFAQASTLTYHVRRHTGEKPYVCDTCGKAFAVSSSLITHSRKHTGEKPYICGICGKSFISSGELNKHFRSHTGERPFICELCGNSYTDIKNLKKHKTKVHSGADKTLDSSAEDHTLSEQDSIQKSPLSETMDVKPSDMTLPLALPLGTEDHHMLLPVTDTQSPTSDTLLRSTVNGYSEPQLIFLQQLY
# UniProt P13533, whole entry, looked up: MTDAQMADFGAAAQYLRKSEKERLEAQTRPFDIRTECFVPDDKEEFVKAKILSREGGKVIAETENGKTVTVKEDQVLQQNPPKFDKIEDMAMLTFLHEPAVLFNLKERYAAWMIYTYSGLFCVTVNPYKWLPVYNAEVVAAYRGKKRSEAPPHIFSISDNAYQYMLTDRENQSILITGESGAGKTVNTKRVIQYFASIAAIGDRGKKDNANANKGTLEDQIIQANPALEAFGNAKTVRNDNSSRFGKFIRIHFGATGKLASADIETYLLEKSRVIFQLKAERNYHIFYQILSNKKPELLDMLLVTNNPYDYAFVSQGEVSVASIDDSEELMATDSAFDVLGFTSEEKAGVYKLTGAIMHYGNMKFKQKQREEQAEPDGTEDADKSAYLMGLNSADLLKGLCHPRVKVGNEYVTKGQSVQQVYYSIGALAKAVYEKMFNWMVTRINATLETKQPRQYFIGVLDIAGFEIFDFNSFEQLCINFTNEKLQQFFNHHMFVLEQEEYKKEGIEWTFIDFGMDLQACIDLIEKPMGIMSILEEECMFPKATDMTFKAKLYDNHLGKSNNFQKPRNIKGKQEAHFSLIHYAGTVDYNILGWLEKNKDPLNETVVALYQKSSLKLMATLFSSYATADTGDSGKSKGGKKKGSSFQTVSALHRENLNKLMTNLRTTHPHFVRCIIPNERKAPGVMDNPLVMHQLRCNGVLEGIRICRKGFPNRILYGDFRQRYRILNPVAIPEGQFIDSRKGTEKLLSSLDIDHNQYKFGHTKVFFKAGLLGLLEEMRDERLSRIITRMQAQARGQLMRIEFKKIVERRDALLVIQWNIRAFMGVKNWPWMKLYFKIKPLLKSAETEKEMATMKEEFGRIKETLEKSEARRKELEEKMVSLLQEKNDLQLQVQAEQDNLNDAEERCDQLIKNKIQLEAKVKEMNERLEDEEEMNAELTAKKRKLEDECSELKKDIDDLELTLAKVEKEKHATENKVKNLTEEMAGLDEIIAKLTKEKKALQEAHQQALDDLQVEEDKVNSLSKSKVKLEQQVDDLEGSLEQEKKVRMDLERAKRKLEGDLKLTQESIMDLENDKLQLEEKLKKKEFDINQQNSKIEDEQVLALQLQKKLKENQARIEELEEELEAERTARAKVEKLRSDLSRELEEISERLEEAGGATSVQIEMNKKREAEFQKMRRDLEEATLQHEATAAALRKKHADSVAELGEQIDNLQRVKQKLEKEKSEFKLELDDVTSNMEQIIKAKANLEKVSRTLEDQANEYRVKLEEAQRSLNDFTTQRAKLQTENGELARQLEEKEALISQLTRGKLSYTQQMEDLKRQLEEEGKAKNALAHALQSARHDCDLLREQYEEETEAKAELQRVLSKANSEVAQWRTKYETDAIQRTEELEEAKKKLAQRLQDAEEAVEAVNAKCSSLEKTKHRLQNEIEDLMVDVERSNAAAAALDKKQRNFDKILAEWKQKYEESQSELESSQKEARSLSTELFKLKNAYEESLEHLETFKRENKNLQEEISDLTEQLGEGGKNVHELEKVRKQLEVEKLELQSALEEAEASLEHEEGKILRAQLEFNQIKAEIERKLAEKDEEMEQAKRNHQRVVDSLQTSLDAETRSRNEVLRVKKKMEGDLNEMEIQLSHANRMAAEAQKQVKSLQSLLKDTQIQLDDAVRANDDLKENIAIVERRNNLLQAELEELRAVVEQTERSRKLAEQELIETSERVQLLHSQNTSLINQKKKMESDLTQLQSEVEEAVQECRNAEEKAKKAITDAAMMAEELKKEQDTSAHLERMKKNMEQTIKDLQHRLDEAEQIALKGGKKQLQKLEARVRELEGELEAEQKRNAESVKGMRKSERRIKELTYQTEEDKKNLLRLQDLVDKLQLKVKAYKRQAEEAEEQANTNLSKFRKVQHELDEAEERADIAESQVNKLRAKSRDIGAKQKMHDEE
# The other results are listed elsewhere or left out.
# Columns and labels:
# Experiment in all cases: log2 fold change, soluble protein after heating vs DMSO (PISA); higher = thermal stabilisation; K562 cells, 10 uM, 30 min; active = over 0.2 and 3.5 SD of the protein, either way, in both replicates (recomputed)
# [1] = compound: COC1=CC=C(C=C1)CN2C=CC3=C2C=C(C=C3)C(=O)NO
# Method in brief: (§1)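 Thermal stability values are relative to control samples and come from duplicates. They are expressed as log2 fold changes. For measurement, K562 cells (2×10^6 cells/mL) received 10 μM compound for 30 min, and aliquots were heated for 3 min over 48°C-58°C, pooled, and extracted at 4°C in PBS with 0.5% NP-40. Soluble protein, the supernatant after 21,000xg for 90 min, was quantified by TMTpro 16plex LC-MS/MS with equalised channel sums.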
# zotarolimus = compound: CO[C@H]1C[C@@H]2CC[C@@H](C)[C@@](O)(O2)C(=O)C(=O)N2CCCC[C@H]2C(=O)O[C@H]([C@H](C)C[C@@H]2CC[C@H](n3cnnn3)[C@H](OC)C2)CC(=O)[C@H](C)/C=C(\C)[C@@H](O)[C@@H](OC)C(=O)[C@H](C)C[C@H](C)/C=C/C=C/C=C/1C [zotarolimus]
# Method in brief: as §1
# idasanutlin = compound: COc1cc(C(=O)O)ccc1NC(=O)[C@@H]1N[C@@H](CC(C)(C)C)[C@](C#N)(c2ccc(Cl)cc2F)[C@H]1c1cccc(Cl)c1F [idasanutlin]
# Method in brief: as §1
# alisertib = compound: COc1cc(Nc2ncc3c(n2)-c2ccc(Cl)cc2C(c2c(F)cccc2OC)=NC3)ccc1C(=O)O [alisertib]
# Method in brief: as §1
# [2] = compound: COc1cc2nc(-c3cc(F)ccc3O)nc(N[C@@H]3CNC[C@H]3C(C)(C)O)c2cc1OC
# Method in brief: as §1
# gefitinib = compound: COc1cc2ncnc(Nc3ccc(F)c(Cl)c3)c2cc1OCCCN1CCOCC1 [gefitinib]
# Method in brief: as §1
# [3] = compound: COc1cccc2cc(-c3nc([C@H]4CC[C@H](C(=O)O)CC4)n4ncnc(N)c34)[nH]c12
# Method in brief: as §1
# lapatinib = compound: CS(=O)(=O)CCNCc1ccc(-c2ccc3ncnc(Nc4ccc(OCc5cccc(F)c5)c(Cl)c4)c3c2)o1 [lapatinib]
# Method in brief: as §1
# pictilisib = compound: CS(=O)(=O)N1CCN(Cc2cc3nc(-c4cccc5[nH]ncc45)nc(N4CCOCC4)c3s2)CC1 [pictilisib]
# Method in brief: as §1
# crizotinib = compound: C[C@@H](Oc1cc(-c2cnn(C3CCNCC3)c2)cnc1N)c1c(Cl)ccc(F)c1Cl [crizotinib]
# Method in brief: as §1
# [4] = compound: C[C@@H]1COCCN1C2=NC(=NC(=C2)C3(CC3)S(=O)(=O)C)C4=C5C=CNC5=CC=C4
# Method in brief: as §1
# [5] = compound: C[C@H](C1=CC=C(C=C1)C(=O)NC2=C3C=CNC3=NC=C2)N
# Method in brief: as §1
# duvelisib = compound: C[C@H](Nc1ncnc2nc[nH]c12)c1cc2cccc(Cl)c2c(=O)n1-c1ccccc1 [duvelisib]
# Method in brief: as §1
# gandotinib = compound: Cc1cc(Nc2cc(CN3CCOCC3)c3nc(C)c(Cc4ccc(Cl)cc4F)n3n2)n[nH]1 [gandotinib]
# Method in brief: as §1
# tozasertib = compound: Cc1cc(Nc2cc(N3CCN(C)CC3)nc(Sc3ccc(NC(=O)C4CC4)cc3)n2)n[nH]1 [tozasertib]
# Method in brief: as §1
# [6] = compound: Cc1cc(SCc2sc(-c3ccc(C(F)(F)F)cc3)nc2C)ccc1OCC(=O)O
# Method in brief: as §1
# doramapimod = compound: Cc1ccc(-n2nc(C(C)(C)C)cc2NC(=O)Nc2ccc(OCCN3CCOCC3)c3ccccc23)cc1 [doramapimod]
# Method in brief: as §1
# ispinesib = compound: Cc1ccc(C(=O)N(CCCN)[C@@H](c2nc3cc(Cl)ccc3c(=O)n2Cc2ccccc2)C(C)C)cc1 [ispinesib]
# Method in brief: as §1
# filanesib = compound: CON(C)C(=O)N1N=C(c2cc(F)ccc2F)S[C@@]1(CCCN)c1ccccc1 [filanesib]
# Method in brief: as §1
# [7] = compound: CS(=O)(=O)c1ccc(-c2cnc(N)c(C(=O)Nc3ccccc3)n2)cc1
# Method in brief: as §1
target,measurement,setting,value
MTMR9 (UniProt Q96QG7),log2 fold change,[1],inactive: 0.007
same,log2 fold change,zotarolimus,inactive: 0.071
same,log2 fold change,idasanutlin,inactive: -0.122
same,log2 fold change,alisertib,inactive: 0.031
same,log2 fold change,[2],inactive: 0.07
same,log2 fold change,gefitinib,inactive: -0.026
same,log2 fold change,[3],inactive: 0.02
same,log2 fold change,lapatinib,inactive: 0.001
same,log2 fold change,pictilisib,inactive: 0.086
same,log2 fold change,crizotinib,inactive: 0.022
same,log2 fold change,[4],inactive: -0.047
same,log2 fold change,[5],inactive: -0.031
same,log2 fold change,duvelisib,inactive: 0.022
same,log2 fold change,gandotinib,inactive: 0.015
same,log2 fold change,tozasertib,inactive: 0.047
same,log2 fold change,[6],inactive: -0.047
same,log2 fold change,doramapimod,inactive: -0.041
same,log2 fold change,ispinesib,inactive: -0.056
MYH3 (UniProt P11055),log2 fold change,zotarolimus,inactive: -0.07
same,log2 fold change,gefitinib,inactive: 1.58
same,log2 fold change,pictilisib,inactive: 0.052
same,log2 fold change,[5],inactive: -0.09
same,log2 fold change,gandotinib,inactive: -0.063
same,log2 fold change,tozasertib,inactive: -0.097
MT-ND3 (UniProt P03897),log2 fold change,[1],inactive: 0.047
same,log2 fold change,gefitinib,inactive: 0.294
same,log2 fold change,crizotinib,inactive: 0.018
same,log2 fold change,doramapimod,inactive: 0.079
same,log2 fold change,ispinesib,inactive: 0.015
MTHFSD (UniProt Q2M296),log2 fold change,zotarolimus,inactive: -0.018
same,log2 fold change,idasanutlin,inactive: 0.162
same,log2 fold change,alisertib,inactive: -0.041
same,log2 fold change,[3],inactive: 0.001
same,log2 fold change,[5],inactive: 0.292
same,log2 fold change,duvelisib,inactive: -0.118
same,log2 fold change,tozasertib,inactive: 0.035
same,log2 fold change,[6],inactive: 0.009
MTA3 (UniProt Q9BTC8),log2 fold change,filanesib,inactive: -0.283
same,log2 fold change,[2],inactive: -0.152
same,log2 fold change,lapatinib,inactive: -0.036
same,log2 fold change,pictilisib,inactive: -0.023
same,log2 fold change,[7],inactive: -0.142
same,log2 fold change,[4],inactive: -0.127
same,log2 fold change,duvelisib,inactive: 0.135
same,log2 fold change,gandotinib,inactive: -0.054
same,log2 fold change,tozasertib,inactive: -0.036
same,log2 fold change,[6],inactive: 0.032
MYO19 (UniProt Q96H55),log2 fold change,[1],inactive: -0.083
same,log2 fold change,zotarolimus,inactive: 0.071
same,log2 fold change,idasanutlin,inactive: -0.116
same,log2 fold change,[2],inactive: 0.081
same,log2 fold change,gefitinib,inactive: 0.024
same,log2 fold change,lapatinib,inactive: 0.276
same,log2 fold change,pictilisib,active: 0.567
same,log2 fold change,crizotinib,inactive: 0.047
same,log2 fold change,[4],inactive: -0.215
same,log2 fold change,[5],inactive: 0.491
same,log2 fold change,gandotinib,inactive: -0.081
same,log2 fold change,[6],inactive: 0.158
same,log2 fold change,doramapimod,inactive: 0.066
same,log2 fold change,ispinesib,inactive: -0.065
MYNN (UniProt Q9NPC7),log2 fold change,filanesib,inactive: 0.184
same,log2 fold change,[7],inactive: 0.242
same,log2 fold change,ispinesib,inactive: -0.024
MYH15 (UniProt Q9Y2K3),log2 fold change,filanesib,inactive: -0.265
same,log2 fold change,alisertib,inactive: 0.028
same,log2 fold change,gefitinib,inactive: -0.162
same,log2 fold change,[3],inactive: 0.053
same,log2 fold change,[7],inactive: 0.235
MYH6 (UniProt P13533),log2 fold change,zotarolimus,inactive: -0.268
same,log2 fold change,alisertib,inactive: -0.153
same,log2 fold change,[2],inactive: 0.19
same,log2 fold change,gefitinib,inactive: 0.089
same,log2 fold change,[3],inactive: -0.015
same,log2 fold change,lapatinib,inactive: -0.051
same,log2 fold change,pictilisib,inactive: 0.113
same,log2 fold change,[4],inactive: -0.01
same,log2 fold change,[5],inactive: -0.258
same,log2 fold change,duvelisib,inactive: -0.025
same,log2 fold change,gandotinib,inactive: 0.038
same,log2 fold change,[6],inactive: -0.134

# 2 records picked at random from those above, as already listed:
target,measurement,setting,value
MYO19 (UniProt Q96H55),log2 fold change,doramapimod,inactive: 0.066
MTMR9 (UniProt Q96QG7),log2 fold change,alisertib,inactive: 0.031

# Taken from above (3 entries):
target,measurement,setting,value
MYO19 (UniProt Q96H55),log2 fold change,[5],inactive: 0.491
same,log2 fold change,gandotinib,inactive: -0.081
same,log2 fold change,[6],inactive: 0.158
